In US12419871B2, “Biomolecules involved in Alzheimer's disease” (ELECTROPHORETICS LIMITED, priority 2015, dated 2025):

Test: TMTcalibrator quantification of regulated proteins in AD CSF versus control
Design: species or system human
Details: CSF of AD patient versus control; non-modified peptides of each protein summed for three control and three AD cases

Molecule	Log2 AD/Control
P49748 (protein, UniProt P49748 1-655, looked up, full-length) MQAARMAASLGRQLLRLGGGSSRLTALLGQPRPGPARRPYAGGAAQLALDKSDSHPSDALTRKKPAKAESKSFAVGMFKGQLTTDQVFPYPSVLNEEQTQFLKELVEPVSRFFEEVNDPAKNDALEMVEETTWQGLKELGAFGLQVPSELGGVGLCNTQYARLVEIVGMHDLGVGITLGAHQSIGFKGILLFGTKAQKEKYLPKLASGETVAAFCLTEPSSGSDAASIRTSAVPSPCGKYYTLNGSKLWISNGGLADIFTVFAKTPVTDPATGAVKEKITAFVVERGFGGITHGPPEKKMGIKASNTAEVFFDGVRVPSENVLGEVGSGFKVAMHILNNGRFGMAAALAGTMRGIIAKAVDHATNRTQFGEKIHNFGLIQEKLARMVMLQYVTESMAYMVSANMDQGATDFQIEAAISKIFGSEAAWKVTDECIQIMGGMGFMKEPGVERVLRDLRIFRIFEGTNDILRLFVALQGCMDKGKELSGLGSALKNPFGNAGLLLGEAGKQLRRRAGLGSGLSLSGLVHPELSRSGELAVRALEQFATVVEAKLIKHKKGIVNEQFLLQRLADGAIDLYAMVVVLSRASRSLSEGHPTAQHEKMLCDTWCIEAAARIREGMAALQSDPWQQELYRNFKSISKALVERGGVVTSNPLGF	0.91
Q9H3H3 (protein, UniProt Q9H3H3 1-292, looked up, full-length) MAAAAAAAVAGVGRGGGGAEPRQERSRARGWAGVERSEGRRMEPGEELEEEGSPGGREDGFTAEHLAAEAMAADMDPWLVFDARTTPATELDAWLAKYPPSQVTRYGDPGSPNSEPVGWIAVYGQGYSPNSGDVQGLQAAWEALQTSGRPITPGTLRQLAITHHVLSGKWLMHLAPGFKLDHAWAGIARAVVEGQLQVAKVSPRAKEGGRQVICVYTDDFTDRLGVLEADSAIRAAGIKCLLTYKPDVYTYLGIYRANRWHLCPTLYESRFQLGGSARGSRVLDRANNVELT	0.83
P17174 (protein, UniProt P17174 1-413, looked up, full-length) MAPPSVFAEVPQAQPVLVFKLTADFREDPDPRKVNLGVGAYRTDDCHPWVLPVVKKVEQKIANDNSLNHEYLPILGLAEFRSCASRLALGDDSPALKEKRVGGVQSLGGTGALRIGADFLARWYNGTNNKNTPVYVSSPTWENHNAVFSAAGFKDIRSYRYWDAEKRGLDLQGFLNDLENAPEFSIVVLHACAHNPTGIDPTPEQWKQIASVMKHRFLFPFFDSAYQGFASGNLERDAWAIRYFVSEGFEFFCAQSFSKNFGLYNERVGNLTVVGKEPESILQVLSQMEKIVRITWSNPPAQGARIVASTLSNPELFEEWTGNVKTMADRILTMRSELRARLEALKTPGTWNHITDQIGMFSFTGLNPKQVEYLVNEKHIYLLPSGRINVSGLTTKNLDYVATSIHEAVTKIQ	0.99
Q14376 (protein, UniProt Q14376 1-348, looked up, full-length) MAEKVLVTGGAGYIGSHTVLELLEAGYLPVVIDNFHNAFRGGGSLPESLRRVQELTGRSVEFEEMDILDQGALQRLFKKYSFMAVIHFAGLKAVGESVQKPLDYYRVNLTGTIQLLEIMKAHGVKNLVFSSSATVYGNPQYLPLDEAHPTGGCTNPYGKSKFFIEEMIRDLCQADKTWNAVLLRYFNPTGAHASGCIGEDPQGIPNNLMPYVSQVAIGRREALNVFGNDYDTEDGTGVRDYIHVVDLAKGHIAALRKLKEQCGCRIYNLGTGTGYSVLQMVQAMEKASGKKIPYKVVARREGDVAACYANPSLAQEELGWTAALGLDRMCEDLWRWQKQNPSGFGTQA	0.82
P17858 (protein, UniProt P17858 1-780, looked up, full-length) MAAVDLEKLRASGAGKAIGVLTSGGDAQGMNAAVRAVTRMGIYVGAKVFLIYEGYEGLVEGGENIKQANWLSVSNIIQLGGTIIGSARCKAFTTREGRRAAAYNLVQHGITNLCVIGGDGSLTGANIFRSEWGSLLEELVAEGKISETTARTYSHLNIAGLVGSIDNDFCGTDMTIGTDSALHRIMEVIDAITTTAQSHQRTFVLEVMGRHCGYLALVSALASGADWLFIPEAPPEDGWENFMCERLGETRSRGSRLNIIIIAEGAIDRNGKPISSSYVKDLVVQRLGFDTRVTVLGHVQRGGTPSAFDRILSSKMGMEAVMALLEATPDTPACVVTLSGNQSVRLPLMECVQMTKEVQKAMDDKRFDEATQLRGGSFENNWNIYKLLAHQKPPKEKSNFSLAILNVGAPAAGMNAAVRSAVRTGISHGHTVYVVHDGFEGLAKGQVQEVGWHDVAGWLGRGGSMLGTKRTLPKGQLESIVENIRIYGIHALLVVGGFEAYEGVLQLVEARGRYEELCIVMCVIPATISNNVPGTDFSLGSDTAVNAAMESCDRIKQSASGTKRRVFIVETMGGYCGYLATVTGIAVGADAAYVFEDPFNIHDLKVNVEHMTEKMKTDIQRGLVLRNEKCHDYYTTEFLYNLYSSEGKGVFDCRTNVLGHLQQGGAPTPFDRNYGTKLGVKAMLWLSEKLREVYRKGRVFANAPDSACVIGLKKKAVAFSPVTELKKDTDFEHRMPREQWWLSLRLMLKMLAQYRISMAAYVSGELEHVTRRTLSMDKGF	0.68
Q9UPY6 (protein, UniProt Q9UPY6 1-502, looked up, full-length) MPLVKRNIEPRHLCRGALPEGITSELECVTNSTLAAIIRQLSSLSKHAEDIFGELFNEANNFYIRANSLQDRIDRLAVKVTQLDSTVEEVSLQDINMKKAFKSSTVQDQQVVSKNSIPNPVADIYNQSDKPPPLNILTPYRDDKKDGLKFYTDPSYFFDLWKEKMLQDTEDKRKEKRRQKEQKRIDGTTREVKKVRKARNRRQEWNMMAYDKELRPDNRLSQSVYHGASSEGSLSPDTRSHASDVTDYSYPATPNHSLHPQPVTPSYAAGDVPPHGPASQAAEHEYRPPSASARHMALNRPQQPPPPPPPQAPEGSQASAPMAPADYGMLPAQIIEYYNPSGPPPPPPPPVIPSAQTAFVSPLQMPMQPPFPASASSTHAAPPHPPSTGLLVTAPPPPGPPPPPPGPPGPGSSLSSSPMHGPPVAEAKRQEPAQPPISDARSDLLAAIRMGIQLKKVQEQREQEAKREPVGNDVATILSRRIAVEYSDSDDDSEFDENDWSD	0.77
Q8TF74 (protein, UniProt Q8TF74 1-440, looked up, full-length) MPIPPPPPPPPGPPPPPTFHQANTEQPKLSRDEQRGRGALLQDICKGTKLKKVTNINDRSAPILEKPKGSSGGYGSGGAALQPKGGLFQGGVLKLRPVGAKDGSENLAGKPALQIPSSRAAAPRPPVSAASGRPQDDTDSSRASLPELPRMQRPSLPDLSRPNTTSSTGMKHSSSAPPPPPPGRRANAPPTPLPMHSSKAPAYNREKPLPPTPGQRLHPGREGPPAPPPVKPPPSPVNIRTGPSGQSLAPPPPPYRQPPGVPNGPSSPTNESAPELPQRHNSLHRKTPGPVRGLAPPPPTSASPSLLSNRPPPPARDPPSRGAAPPPPPPVIRNGARDAPPPPPPYRMHGSEPPSRGKPPPPPSRTPAGPPPPPPPPLRNGHRDSITTVRSFLDDFESKYSFHPVEDFPAPEEYKHFQRIYPSKTNRAARGAPPLPPILR	1.71
Q9ULF5 (protein, UniProt Q9ULF5 1-831, looked up, full-length) MKVHMHTKFCLICLLTFIFHHCNHCHEEHDHGPEALHRQHRGMTELEPSKFSKQAAENEKKYYIEKLFERYGENGRLSFFGLEKLLTNLGLGERKVVEINHEDLGHDHVSHLDILAVQEGKHFHSHNHQHSHNHLNSENQTVTSVSTKRNHKCDPEKETVEVSVKSDDKHMHDHNHRLRHHHRLHHHLDHNNTHHFHNDSITPSERGEPSNEPSTETNKTQEQSDVKLPKGKRKKKGRKSNENSEVITPGFPPNHDQGEQYEHNRVHKPDRVHNPGHSHVHLPERNGHDPGRGHQDLDPDNEGELRHTRKREAPHVKNNAIISLRKDLNEDDHHHECLNVTQLLKYYGHGANSPISTDLFTYLCPALLYQIDSRLCIEHFDKLLVEDINKDKNLVPEDEANIGASAWICGIISITVISLLSLLGVILVPIINQGCFKFLLTFLVALAVGTMSGDALLHLLPHSQGGHDHSHQHAHGHGHSHGHESNKFLEEYDAVLKGLVALGGIYLLFIIEHCIRMFKHYKQQRGKQKWFMKQNTEESTIGRKLSDHKLNNTPDSDWLQLKPLAGTDDSVVSEDRLNETELTDLEGQQESPPKNYLCIEEEKIIDHSHSDGLHTIHEHDLHAAAHNHHGENKTVLRKHNHQWHHKHSHHSHGPCHSGSDLKETGIANIAWMVIMGDGIHNFSDGLAIGAAFSAGLTGGISTSIAVFCHELPHELGDFAVLLKAGMTVKQAIVYNLLSAMMAYIGMLIGTAVGQYANNITLWIFAVTAGMFLYVALVDMLPEMLHGDGDNEEHGFCPVGQFILQNLGLLFGFAIMLVIALYEDKIVFDIQF	0.76
Q15714 (protein, UniProt Q15714 1-1073, looked up, full-length) MHQPPESTAAAAAAADISARKMAHPAMFPRRGSGSGSASALNAAGTGVGSNATSSEDFPPPSLLQPPPPAASSTSGPQPPPPQSLNLLSQAQLQAQPLAPGGTQMKKKSGFQITSVTPAQISASISSNNSIAEDTESYDDLDESHTEDLSSSEILDVSLSRATDLGEPERSSSEETLNNFQEAETPGAVSPNQPHLPQPHLPHLPQQNVVINGNAHPHHLHHHHQIHHGHHLQHGHHHPSHVAVASASITGGPPSSPVSRKLSTTGSSDSITPVAPTSAVSSSGSPASVMTNMRAPSTTGGIGINSVTGTSTVNNVNITAVGSFNPNVTSSMLGNVNISTSNIPSAAGVSVGPGVTSGVNVNILSGMGNGTISSSAAVSSVPNAAAGMTGGSVSSQQQQPTVNTSRFRVVKLDSSSEPFKKGRWTCTEFYEKENAVPATEGVLINKVVETVKQNPIEVTSERESTSGSSVSSSVSTLSHYTESVGSGEMGAPTVVVQQQQQQQQQQQQQPALQGVTLQQMDFGSTGPQSIPAVSIPQSISQSQISQVQLQSQELSYQQKQGLQPVPLQATMSAATGIQPSPVNVVGVTSALGQQPSISSLAQPQLPYSQAAPPVQTPLPGAPPPQQLQYGQQQPMVSTQMAPGHVKSVTQNPASEYVQQQPILQTAMSSGQPSSAGVGAGTTVIPVAQPQGIQLPVQPTAVPAQPAGASVQPVGQAPAAVSAVPTGSQIANIGQQANIPTAVQQPSTQVPPSVIQQGAPPSSQVVPPAQTGIIHQGVQTSAPSLPQQLVIASQSSLLTVPPQPQGVEPVAQGIVSQQLPAVSSLPSASSISVTSQVSSTGPSGMPSAPTNLVPPQNIAQTPATQNGNLVQSVSQPPLIATNTNLPLAQQIPLSSTQFSAQSLAQAIGSQIEDARRAAEPSLVGLPQTISGDSGGMSAVSDGSSSSLAASASLFPLKVLPLTTPLVDGEDESSSGASVVAIDNKIEQAMDLVKSHLMYAVREEVEVLKEQIKELIEKNSQLEQENNLLKTLASPEQLAQFQAQLQTGSPPATTQPQGTTQPPAQPASQGSGPTA	0.89
Q96BJ3 (protein, UniProt Q96BJ3 1-306, looked up, full-length) MSEVTRSLLQRWGASFRRGADFDSWGQLVEAIDEYQILARHLQKEAQAQHNNSEFTEEQKKTIGKIATCLELRSAALQSTQSQEEFKLEDLKKLEPILKNILTYNKEFPFDVQPVPLRRILAPGEEENLEFEEDEEEGGAGAGSPDSFPARVPGTLLPRLPSEPGMTLLTIRIEKIGLKDAGQCIDPYITVSVKDLNGIDLTPVQDTPVASRKEDTYVHFNVDIELQKHVEKLTKGAAIFFEFKHYKPKKRFTSTKCFAFMEMDEIKPGPIVIELYKKPTDFKRKKLQLLTKKPLYLHLHQTLHKE	0.98
